The data set relates to atherosclerosis in Apoe-/- mice. Nature of the data set: Atherosclerosis in Apoe-/- mice fed WD. To be noted: last 4 weeks of 12 weeks WD. Type of data set: in vivo, mouse. On the procedure:
FIGS. 6A-6J depict that IRE1 kinase inhibition alleviates atherosclerosis. (Data are mean±SEM; Mann Whitney U test. * P≤0.05, ** P≤0.01, *** P≤0.001.) • 6A. Atherosclerosis experiment design in Apoe^−/− mice were fed with WD (12 weeks) and injected with vehicle (DMSO) or AMG-18 (30 mg/kg) once a day in the last 4 weeks of WD. • 6B. Lesion area calculated from en face aorta, stained with ORO (n=5; Scale bar=5 mm). • 6C. Total plaque area was calculated from H&E-stained aortic root sections (n=5; Scale bar=300 μm). • 6D. Foam cell area was calculated from ORO-stained aortic root sections (n=5; Scale bar=300 μm). • 6E. Necrotic area was calculated from H&E-stained aortic root sections (n=5; Scale bar=100 μm). • 6F. Atherosclerosis experiment design in Apoe^−/− mice were fed with WD (12 weeks) and injected with vehicle (DMSO) or AMG-18 (30 mg/kg) twice a day in the last 4 weeks of WD. • 6G. Lesion area calculated from en face aorta, stained with ORO (n=6; Scale bar=5 mm). • 6H. Total plaque area was calculated from H&E-stained aortic root sections (n=5; Scale bar=300 μm). • 6I. Foam cell area was calculated from ORO-stained aortic root sections (n=5; Scale bar=300 μm). • 6J. Necrotic area was calculated from H&E-stained aortic root sections (n=5; Scale bar=100 μm).
FIGS. 6K-6T depict: (Data are mean±SEM; Mann Whitney U test. * P≤0.05, ** P≤0.01, *** P≤0.001.) • 6K. The ratio of mouse weight at the beginning of the experiment over the weight at the end of the experiment in FIG. 6A (n=5). • 6L-6N. Plasma measurements for (6L) glucose (n=5) and (6M) cholesterol (n=5) from mice in FIG. 6A. (6N) Abundance of B cells, T cells and monocytes in the peripheral blood as % of total CD45+ cells from the vehicle (DMSO) or AMG-18 (30 mg/kg) once a day injected mice in FIG. 6A (n=5). • 6O. Protein lysates of liver from mice in FIG. 6A. Proteins were analyzed by western blotting using specific antibodies for pIRE1 and β-Actin (n=5). • 6P. The ratio of mouse weight at the beginning of the experiment over the weight at the end of the experiment in FIG. 6F (n=6). • 6Q-6R. Plasma measurements for (6Q) glucose (n=6) and (6R) cholesterol (n=6) from FIG. 6F. • 6S-6T. Protein lysates of (6S) thioglycolate-elicited PM and (6T) liver from mice in FIG. 6F. Proteins were analyzed by western blotting using specific antibodies for pIRE1 and β-Actin (n=6).
Mice studies and treatments: C57BL/6 (WT, Fmr1^+/+), Fmr1^−/− and Apolipoprotein E-deficient (Apoe^−/−) mice were purchased from Jackson Laboratory. IRE1 conditional knock out (Ire1α^flox/flox) mice were a kind gift from Dr. Takao Iwawaki (Kanazawa Medical University, Japan) and characterized before (Iwawaki et al, 2009). […] Fmr1 conditional knock out (Fmr1^flox/flox) mice were a kind gift from dr. David Nelson. […]

Each structure is given as a SMILES string.

In the case of `Cc1ccc2c(NS(=O)(=O)c3ccccc3Cl)cccc2c1Oc1ncccc1-c1ccnc(N[C@H]2CCCNC2)n1` [AMG-18], where the note is “30 mg/kg once daily”, the “TPC (total plasma cholesterol)” value is recorded as “no significant differences” and the plasma glucose entry is “no significant differences”. Also, for the setting “30 mg/kg twice daily”, the “TPC (total plasma cholesterol)” value is reported as “decrease” and the plasma glucose levels entry is given as “no significant differences”.

These data come from patent US20250134889A1, “TARGETING IRE1 KINASE AND FMRP FOR PROPHYLAXIS, MANAGEMENT AND TREATMENT OF ATHEROSCLEROSIS” (CEDARS-SINAI MEDICAL CENTER, priority 2022, published 2025).
